Results reported in patent CN114591431A.
Results are given in words; binding and its absence hold for the method and conditions named. Some binding calls cover weakened binding; strength is not graded here. Sequences can lack the tags named with a protein.

Assays:
[1] = biological target: T1, 鼠GAS6 his蛋白(Sino Biological，Cat#58026-M08H) (mouse) (UniProt Q61592); assay: ELISA, coated mouse GAS6 his
T1 sequence (looked up): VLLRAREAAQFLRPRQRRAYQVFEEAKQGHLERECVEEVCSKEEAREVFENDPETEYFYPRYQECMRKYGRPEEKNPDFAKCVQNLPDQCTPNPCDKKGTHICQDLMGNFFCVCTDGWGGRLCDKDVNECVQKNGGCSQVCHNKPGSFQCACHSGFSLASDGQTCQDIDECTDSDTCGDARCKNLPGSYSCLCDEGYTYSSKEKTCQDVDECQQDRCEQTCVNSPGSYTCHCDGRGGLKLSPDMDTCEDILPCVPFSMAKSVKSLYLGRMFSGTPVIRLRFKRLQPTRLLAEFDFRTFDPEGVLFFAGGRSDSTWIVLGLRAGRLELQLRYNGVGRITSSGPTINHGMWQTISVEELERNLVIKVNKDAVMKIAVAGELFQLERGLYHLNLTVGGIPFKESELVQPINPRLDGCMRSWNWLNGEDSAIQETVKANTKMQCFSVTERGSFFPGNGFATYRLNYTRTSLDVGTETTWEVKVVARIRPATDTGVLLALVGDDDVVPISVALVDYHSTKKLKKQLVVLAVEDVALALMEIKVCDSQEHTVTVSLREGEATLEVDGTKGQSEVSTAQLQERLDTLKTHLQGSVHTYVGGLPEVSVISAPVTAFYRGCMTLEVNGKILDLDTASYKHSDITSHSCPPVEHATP

[2] = biological target: T2, 重组人GAS6 his 蛋白(Novoprotein，Cat#C01W) (human) (UniProt Q14393); assay: ELISA
T2 sequence (looked up): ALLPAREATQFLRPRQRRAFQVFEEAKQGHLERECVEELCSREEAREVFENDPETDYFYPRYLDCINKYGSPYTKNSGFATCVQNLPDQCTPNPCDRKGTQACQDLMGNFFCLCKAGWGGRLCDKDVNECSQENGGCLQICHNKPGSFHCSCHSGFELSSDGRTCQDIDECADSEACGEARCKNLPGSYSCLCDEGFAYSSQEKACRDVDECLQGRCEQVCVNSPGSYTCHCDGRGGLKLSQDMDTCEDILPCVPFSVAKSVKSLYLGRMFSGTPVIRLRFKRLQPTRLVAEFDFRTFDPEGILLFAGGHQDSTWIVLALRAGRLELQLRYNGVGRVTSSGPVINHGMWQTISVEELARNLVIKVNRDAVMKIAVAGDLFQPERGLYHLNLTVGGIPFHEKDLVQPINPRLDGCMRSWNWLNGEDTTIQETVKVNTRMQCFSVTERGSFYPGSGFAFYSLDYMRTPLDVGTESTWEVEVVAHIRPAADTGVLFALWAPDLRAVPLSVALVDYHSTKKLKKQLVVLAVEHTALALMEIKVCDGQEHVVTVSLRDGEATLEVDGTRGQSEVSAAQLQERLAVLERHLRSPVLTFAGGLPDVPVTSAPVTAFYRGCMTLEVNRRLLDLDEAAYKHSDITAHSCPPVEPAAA

[3] = biological target: T1, 鼠GAS6 his蛋白(Sino Biological，Cat#58026-M08H) (mouse); assay: ELISA
[4] = biological target: T2, 重组人GAS6 his 蛋白(Novoprotein，Cat#C01W) (human); assay: ELISA, coated human GAS6 his

Measured: binding

B1: ch2D3C6 (antibody, human IgG1, kappa, V domains shown)
VH: DIQLQESGPGLVKPSQSLSLTCSVTGYSITNGYYWNWIRQFPGNKLEWMGYISYDGTNNYNPSLKNRISITRDTSKNQFFLKLNSVTTEDTATYYCARRALWYYAMDYWGQGTSVTVSS
VL: DIVMTQSPASLAVSLGQRATISCKASQSVDYDGESYMNWYQQKPGQPPKLLIYVASNLESGIPARFSGSGSGTDFTLNIHPVEEEDAATYYCQQSDEDPYTFGGGTKLEIKR
binds: [1]

B2: ch2O18G6 (antibody, human IgG1, kappa, V domains shown)
VH: QVQLQQSGPELVKPGASVKISCKTSGNTFTEYIMHWVKQSHGKSLEWIGGINPKNGGTSYNQKFKGKATLTVDKSSRTAYMELRSLTSEDSAVYYCARVRIPPYVYYAMDYWGQGTTVTVSS
VL: DVVVTQTPLSLPVSLGDQASISCRSSQSIVHSNGNTYLEWYLQKPGQSPKLLIYKVSNRFSGVPDRFSGSGSGTDFTLKISRVEAEDLGVYYCFQGSHVPYTFGGGTKLEIKR
binds: [2] | [3] | [1] | [4]

B3: ch15G5E5 (antibody, human IgG1, kappa, V domains shown)
VH: EVQLQQSGPELVKPGASVKMSCKASGYTFTDDYMKWVKQSHGKSLEWIGDINPNNGGTIYNQKFKGKAILTVDKSSSTAYMQLNSLTSEDSAVYYCARRGRGSWGQGTTVTVSS
VL: DVLMTQTPLSLPVSLGDQASISCRSSQSIVYSNGNTYLEWYLQKPGQSPKLLIYRVSNRFSGVPDRFSGSGSGTDFTLKISRVEAEDLGIYYCFQGSHVPLTFGAGTKLELKR
binds: [2] | [3] | [1] | [4]

B4: ch18I16C6 (antibody, human IgG1, kappa, V domains shown)
VH: EVKIEESGGGLVKPGGSLKLSCAASGFTFSSYAMSWFRQTPEKRLEWVASISSGGNSYYPDSVKGRFTISRDNARNILYLQMSSLRSEDTAMYYCSRTPDYWGQGTTVTVSS
VL: DVVMTQSPSSMCASLGERVTITCKASQDINTYLSWFQQKPGKSPKTLIYRANRLVDGVPSRFSGSGSGQDYSLTISSLEYEDMGIYYCLQYDEFPFTFGSGTKLEIKR
binds: [2] | [3] | [1] | [4]
